Laboratory results reported in publication PMC4476799, “Englerin A Agonizes the TRPC4/C5 Cation Channels to Inhibit Tumor Cell Line Proliferation” (PLoS ONE, 2015).
This continues a long series; more values of the same kind are listed elsewhere.

Test system: cancer cell lines from the cancer cell line encyclopedia (CCLE)
Experiment: Cell line profiling (CLiP) proliferation experiment
Type: cell-based
Set-up: ACTIVITY_AREA: scale not given here; AMAX: unit not given here
Protocol: Compound profiling experiment and data analysis was performed as previously described. Data was imported and plotted using the Tibco Spotfire DXP application. Lines were categorized as sensitive, intermediate and refractory as follows: Amax<-40 & Inflection Point <2 ~ Sensitive, Amax>-20 & Inflection Point >10 ~ Refractory, all else were called Intermediate. Cancer Cell line HG-U133 Plus 2 data was processed and normalized as described. […] Five sets of refractory cell lines were generated from the pool of refractory cell lines trying to match the lineage composition of the set of sensitive cell lines. The limma package was used as previously described to perform the statistical comparison.

[1] = SEM (haematopoietic_and_lymphoid_tissue)
[2] = SK-MEL-2, second row, PRIMARY_SITE (Empty)
[3] = SNU-738 (central_nervous_system)
[4] = SNU-C1 (large_intestine, adenocarcinoma)
[5] = SNU-C5 (large_intestine, adenocarcinoma)
[6] = SR-786 (haematopoietic_and_lymphoid_tissue)
[7] = SR-786 (haematopoietic_and_lymphoid_tissue, anaplastic_large_cell_lymphoma)
[8] = ST486 (haematopoietic_and_lymphoid_tissue)
[9] = ST486 (haematopoietic_and_lymphoid_tissue, Burkitt_lymphoma)
[10] = SU-DHL-4 (haematopoietic_and_lymphoid_tissue)
[11] = SU-DHL-4 (haematopoietic_and_lymphoid_tissue, diffuse_large_B_cell_lymphoma)
[12] = SU-DHL-5 (haematopoietic_and_lymphoid_tissue)
[13] = SU-DHL-5 (haematopoietic_and_lymphoid_tissue, diffuse_large_B_cell_lymphoma)
[14] = SU-DHL-8 (haematopoietic_and_lymphoid_tissue)
[15] = SU-DHL-8 (haematopoietic_and_lymphoid_tissue, diffuse_large_B_cell_lymphoma)
[16] = SU-DHL-10 (haematopoietic_and_lymphoid_tissue)
[17] = SU-DHL-10 (haematopoietic_and_lymphoid_tissue, diffuse_large_B_cell_lymphoma)

CC(C)[C@@]12C[C@@H](O)[C@@](C)(O1)[C@@H]1CC[C@@H](C)[C@H]1[C@@H]2OC(=O)/C=C/c1ccccc1 [Englerin B]
ACTIVITY_AREA (Reh cells): 23.98 | AMAX (Reh cells): -68.69 | RESPONSE (Reh cells): INTERMEDIATE | ACTIVITY_AREA (SCaBER (urinary_tract)): 14.07 | AMAX (SCaBER (urinary_tract)): -45.66 | RESPONSE (SCaBER (urinary_tract)): INTERMEDIATE | ACTIVITY_AREA [1]: 52.36 | AMAX [1]: -92.78 | RESPONSE [1]: INTERMEDIATE | ACTIVITY_AREA (SF126 cells): 16.33 | AMAX (SF126 cells): -51.64 | RESPONSE (SF126 cells): INTERMEDIATE | ACTIVITY_AREA (SH-4 (skin)): 33.65 | AMAX (SH-4 (skin)): -3.14 | RESPONSE (SH-4 (skin)): REFRACTORY | ACTIVITY_AREA (SH-10-TC (stomach)): 15.1 | AMAX (SH-10-TC (stomach)): -43.59 | RESPONSE (SH-10-TC (stomach)): INTERMEDIATE | ACTIVITY_AREA (SHP-77 cells): 31.6 | AMAX (SHP-77 cells): -35.78 | RESPONSE (SHP-77 cells): INTERMEDIATE | ACTIVITY_AREA (SJRH30 (soft_tissue)): 51.08 | AMAX (SJRH30 (soft_tissue)): -72.1 | RESPONSE (SJRH30 (soft_tissue)): INTERMEDIATE | ACTIVITY_AREA (SJSA-1 cells): 16.2 | AMAX (SJSA-1 cells): -50.82 | RESPONSE (SJSA-1 cells): INTERMEDIATE | ACTIVITY_AREA (SK-BR-3 cells): 113.22 | AMAX (SK-BR-3 cells): -42.92 | RESPONSE (SK-BR-3 cells): INTERMEDIATE | ACTIVITY_AREA (SK-CO-1 (large_intestine)): 18.26 | AMAX (SK-CO-1 (large_intestine)): -55.85 | RESPONSE (SK-CO-1 (large_intestine)): INTERMEDIATE | ACTIVITY_AREA (SK-ES-1 (bone)): 20.21 | AMAX (SK-ES-1 (bone)): -73.28 | RESPONSE (SK-ES-1 (bone)): INTERMEDIATE | ACTIVITY_AREA (SK-LMS-1 cells): 30.68 | AMAX (SK-LMS-1 cells): -47.74 | RESPONSE (SK-LMS-1 cells): INTERMEDIATE | ACTIVITY_AREA (SK-LU-1 (lung)): 14.44 | AMAX (SK-LU-1 (lung)): -26.13 | RESPONSE (SK-LU-1 (lung)): INTERMEDIATE | ACTIVITY_AREA (SK-MEL-1 cells): 32.43 | AMAX (SK-MEL-1 cells): -84.28 | RESPONSE (SK-MEL-1 cells): INTERMEDIATE | ACTIVITY_AREA (SK-MEL-2 (skin)): 1.02 | AMAX (SK-MEL-2 (skin)): 5.8 | RESPONSE (SK-MEL-2 (skin)): REFRACTORY | ACTIVITY_AREA [2]: 1.02 | AMAX [2]: 5.8 | RESPONSE [2]: REFRACTORY | ACTIVITY_AREA (SK-MEL-3 cells): 63.68 | AMAX (SK-MEL-3 cells): -13.66 | RESPONSE (SK-MEL-3 cells): REFRACTORY | ACTIVITY_AREA (SK-MEL-5 (skin)): 22.94 | AMAX (SK-MEL-5 (skin)): -46.63 | RESPONSE (SK-MEL-5 (skin)): INTERMEDIATE | ACTIVITY_AREA (SK-MEL-24 (skin)): 33 | AMAX (SK-MEL-24 (skin)): -43.01 | RESPONSE (SK-MEL-24 (skin)): INTERMEDIATE | ACTIVITY_AREA (SK-MEL-30 (skin)): 109.54 | AMAX (SK-MEL-30 (skin)): -50.55 | RESPONSE (SK-MEL-30 (skin)): INTERMEDIATE | ACTIVITY_AREA (SK-MES-1 cells): 30.56 | AMAX (SK-MES-1 cells): -55.21 | RESPONSE (SK-MES-1 cells): INTERMEDIATE | ACTIVITY_AREA (SK-N-AS (autonomic_ganglia)): 91.35 | AMAX (SK-N-AS (autonomic_ganglia)): -34.64 | RESPONSE (SK-N-AS (autonomic_ganglia)): INTERMEDIATE | ACTIVITY_AREA (SK-N-DZ cells): 7.35 | AMAX (SK-N-DZ cells): 8.38 | RESPONSE (SK-N-DZ cells): REFRACTORY | ACTIVITY_AREA (SK-N-FI (autonomic_ganglia)): 42.7 | AMAX (SK-N-FI (autonomic_ganglia)): -8.91 | RESPONSE (SK-N-FI (autonomic_ganglia)): REFRACTORY | ACTIVITY_AREA (SK-OV-3 (ovary)): 15.78 | AMAX (SK-OV-3 (ovary)): -2.48 | RESPONSE (SK-OV-3 (ovary)): REFRACTORY | ACTIVITY_AREA (SK-UT-1 (soft_tissue)): 43.67 | AMAX (SK-UT-1 (soft_tissue)): -47.86 | RESPONSE (SK-UT-1 (soft_tissue)): INTERMEDIATE | ACTIVITY_AREA (SNB-19 cells): 46.12 | AMAX (SNB-19 cells): -38.66 | RESPONSE (SNB-19 cells): INTERMEDIATE | ACTIVITY_AREA (SNG-M (endometrium)): 18.36 | AMAX (SNG-M (endometrium)): -34.56 | RESPONSE (SNG-M (endometrium)): INTERMEDIATE | ACTIVITY_AREA (SNU-1 (stomach)): 12.42 | AMAX (SNU-1 (stomach)): -40.73 | RESPONSE (SNU-1 (stomach)): INTERMEDIATE | ACTIVITY_AREA (SNU-16 cells): 45.05 | AMAX (SNU-16 cells): -92.26 | RESPONSE (SNU-16 cells): INTERMEDIATE | ACTIVITY_AREA (SNU-119 (ovary)): 11.44 | AMAX (SNU-119 (ovary)): -38.35 | RESPONSE (SNU-119 (ovary)): INTERMEDIATE | ACTIVITY_AREA (SNU-182 (liver)): 33.88 | AMAX (SNU-182 (liver)): -47.55 | RESPONSE (SNU-182 (liver)): INTERMEDIATE | ACTIVITY_AREA (SNU-216 (stomach)): 13.08 | AMAX (SNU-216 (stomach)): -38.81 | RESPONSE (SNU-216 (stomach)): INTERMEDIATE | ACTIVITY_AREA (SNU-449 (liver)): 71.96 | AMAX (SNU-449 (liver)): -65.86 | RESPONSE (SNU-449 (liver)): INTERMEDIATE | ACTIVITY_AREA [3]: 58.38 | AMAX [3]: -11.21 | RESPONSE [3]: REFRACTORY | ACTIVITY_AREA (SNU-878 (liver)): 12.07 | AMAX (SNU-878 (liver)): -56.36 | RESPONSE (SNU-878 (liver)): INTERMEDIATE | ACTIVITY_AREA (SNU-1079 (biliary_tract)): 17.2 | AMAX (SNU-1079 (biliary_tract)): -58.5 | RESPONSE (SNU-1079 (biliary_tract)): INTERMEDIATE | ACTIVITY_AREA [4]: 40.33 | AMAX [4]: -44.63 | RESPONSE [4]: INTERMEDIATE | ACTIVITY_AREA (SNU-C1 cells): 40.33 | AMAX (SNU-C1 cells): -44.63 | RESPONSE (SNU-C1 cells): INTERMEDIATE | ACTIVITY_AREA (SNU-C5 (large_intestine)): 45.53 | AMAX (SNU-C5 (large_intestine)): -48.42 | RESPONSE (SNU-C5 (large_intestine)): INTERMEDIATE | ACTIVITY_AREA [5]: 45.53 | AMAX [5]: -48.42 | RESPONSE [5]: INTERMEDIATE | ACTIVITY_AREA [6]: 108.24 | AMAX [6]: -45.46 | RESPONSE [6]: INTERMEDIATE | ACTIVITY_AREA [7]: 108.24 | AMAX [7]: -45.46 | RESPONSE [7]: INTERMEDIATE | ACTIVITY_AREA [8]: 53.27 | AMAX [8]: -92.07 | RESPONSE [8]: INTERMEDIATE | ACTIVITY_AREA [9]: 53.27 | AMAX [9]: -92.07 | RESPONSE [9]: INTERMEDIATE | ACTIVITY_AREA [10]: 38.45 | AMAX [10]: -71.62 | RESPONSE [10]: INTERMEDIATE | ACTIVITY_AREA [11]: 38.45 | AMAX [11]: -71.62 | RESPONSE [11]: INTERMEDIATE | ACTIVITY_AREA [12]: 45.11 | AMAX [12]: -80.85 | RESPONSE [12]: INTERMEDIATE | ACTIVITY_AREA [13]: 45.11 | AMAX [13]: -80.85 | RESPONSE [13]: INTERMEDIATE | ACTIVITY_AREA [14]: 24.19 | AMAX [14]: -82.38 | RESPONSE [14]: INTERMEDIATE | ACTIVITY_AREA [15]: 24.19 | AMAX [15]: -82.38 | RESPONSE [15]: INTERMEDIATE | ACTIVITY_AREA [16]: 44.68 | AMAX [16]: -65.49 | RESPONSE [16]: INTERMEDIATE | ACTIVITY_AREA [17]: 44.68 | AMAX [17]: -65.49 | RESPONSE [17]: INTERMEDIATE | ACTIVITY_AREA (SUM52PE (breast)): 18.69 | AMAX (SUM52PE (breast)): -28.85 | RESPONSE (SUM52PE (breast)): INTERMEDIATE | ACTIVITY_AREA (SUM52PE (breast, NS)): 18.69 | AMAX (SUM52PE (breast, NS)): -28.85 | RESPONSE (SUM52PE (breast, NS)): INTERMEDIATE | ACTIVITY_AREA (SUM-52 (breast)): 9.58 | AMAX (SUM-52 (breast)): -47.91 | RESPONSE (SUM-52 (breast)): INTERMEDIATE | ACTIVITY_AREA (SUM-52 (breast, NS)): 9.58
